{"source": "the supplement of paper PMC4635364", "note": "Structures can show the parent of a compound that is named as a salt. Some of the results follow. Single values are uncertain here, since repeats match poorly.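 Human fetal ventral-midbrain neural progenitor line ReNCell VM, differentiated without mitogens. Images stained for doublecortin (early neurons) or tyrosine hydroxylase (dopaminergic neurons) were scored by blinded raters against untreated wells (0 = no change). Repeats and both raters were averaged, and compounds averaging 2 or higher were picked as hits for retesting.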", "data": [{"test_system": "ReNCell VM", "assay": "dopaminergic neuron differentiation score (TH+ cell fraction vs untreated, manual image score) (score (0 to 3)); higher = more TH+ dopaminergic neuron differentiation", "conditions": "library: Prestwick; 2 uM; 4 weeks; BDNF 10 ng/ml + GDNF 10 ng/ml", "values": [{"smiles": "CC(=O)OCC(=O)[C@@]12OC3(CCCC3)O[C@@H]1C[C@H]1[C@@H]3CCC4=CC(=O)C=C[C@]4(C)[C@@]3(F)[C@@H](O)C[C@@]12C", "note": "[Amcinonide]", "dopaminergic neuron differentiation score": "inactive: 0"}, {"smiles": "CCc1cc(C(N)=S)ccn1", "note": "[Ethionamide]", "dopaminergic neuron differentiation score": "inactive: 0"}, {"smiles": "CO/N=C(\\C(=O)N[C@@H]1C(=O)N2C(C(=O)O)=C(COC(N)=O)CS[C@H]12)c1ccco1", "note": "[Cefuroxime sodium salt]", "dopaminergic neuron differentiation score": "inactive: 0"}, {"smiles": "NS(=O)(=O)c1cc(C(=O)O)cc(N2CCCC2)c1Oc1ccccc1", "note": "[Piretanide]", "dopaminergic neuron differentiation score": "inactive: 0"}, {"smiles": "N#Cc1ccc(C(c2ccc(C#N)cc2)n2cncn2)cc1", "note": "[Letrozole]", "dopaminergic neuron differentiation score": "inactive: 0"}, {"smiles": "CCN(CC)C(=O)/C(C#N)=C/c1cc(O)c(O)c([N+](=O)[O-])c1", "note": "[Entacapone]", "dopaminergic neuron differentiation score": "inactive: 0"}]}]}
